This test has as its target human Jagged-1, full length (HEK293T-Jagged-1 cells) (human) (UniProt P78504). Description: pull-down from HEK293T-Jagged1 lysate with biotin-labeled peptide and streptavidin magnetic beads, anti-Jagged1 blot.

The chains behind the UniProt entries cited, without tags or fusion partners. Residues count along the entry.
UniProt P78504, residues 34-1218: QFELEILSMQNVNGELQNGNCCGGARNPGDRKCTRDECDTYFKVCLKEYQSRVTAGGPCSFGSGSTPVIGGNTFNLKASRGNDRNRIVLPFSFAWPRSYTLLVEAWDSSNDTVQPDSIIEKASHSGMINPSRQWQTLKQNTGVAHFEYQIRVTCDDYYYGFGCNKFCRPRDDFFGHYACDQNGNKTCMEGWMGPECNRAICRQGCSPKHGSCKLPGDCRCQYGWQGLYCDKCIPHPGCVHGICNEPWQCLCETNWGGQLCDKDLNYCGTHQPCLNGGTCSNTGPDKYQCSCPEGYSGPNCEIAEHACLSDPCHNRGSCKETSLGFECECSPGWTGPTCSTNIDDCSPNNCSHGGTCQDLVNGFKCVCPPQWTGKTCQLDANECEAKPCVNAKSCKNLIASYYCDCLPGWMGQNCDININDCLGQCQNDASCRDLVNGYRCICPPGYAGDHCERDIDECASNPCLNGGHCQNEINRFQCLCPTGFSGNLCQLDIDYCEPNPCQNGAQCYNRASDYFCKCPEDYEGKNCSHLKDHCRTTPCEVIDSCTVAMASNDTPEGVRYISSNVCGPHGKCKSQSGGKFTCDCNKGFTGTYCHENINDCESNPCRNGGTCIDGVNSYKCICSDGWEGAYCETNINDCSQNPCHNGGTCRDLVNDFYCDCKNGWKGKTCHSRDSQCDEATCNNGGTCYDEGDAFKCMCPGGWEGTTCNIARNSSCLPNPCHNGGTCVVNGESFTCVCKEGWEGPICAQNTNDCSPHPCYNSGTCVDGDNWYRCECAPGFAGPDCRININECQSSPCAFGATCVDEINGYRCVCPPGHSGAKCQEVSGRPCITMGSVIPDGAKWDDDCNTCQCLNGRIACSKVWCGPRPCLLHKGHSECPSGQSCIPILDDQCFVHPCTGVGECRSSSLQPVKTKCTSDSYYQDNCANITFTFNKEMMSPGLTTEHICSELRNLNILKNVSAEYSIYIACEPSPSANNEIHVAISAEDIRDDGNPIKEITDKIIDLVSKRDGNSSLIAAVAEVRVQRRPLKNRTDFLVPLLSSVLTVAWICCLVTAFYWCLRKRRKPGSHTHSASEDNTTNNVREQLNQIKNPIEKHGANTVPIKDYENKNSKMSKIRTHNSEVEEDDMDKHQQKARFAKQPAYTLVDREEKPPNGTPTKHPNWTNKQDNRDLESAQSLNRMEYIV

These results are taken from patent publication US20210246168A1.

Results are given in words; binding and its absence hold for the method and conditions named. Binding seen in cells or lysates may run through a third protein. Some entries that bind do so weakly or less than the wild type.

As for CLDQIGEFQCICMPG (biotinylated (position of the biotin not stated)) [biotinylated N1 (SEQ ID NO: 10) peptide], the binding entry is recorded as “binds”.
